Read-outs that look alike come from different tables or passages of the source. These are yes or no findings as the source states them, for the method shown. Binding seen in cells or lysates may run through a third protein. Some results given as binding are weak or reduced against the parent protein; the word gives no strength. For part of these data: Sequences can lack the tags named with a protein.
How the values were obtained:
Assay in all cases: co-IP
Myc-USP47 (human) = target: T1, Myc-USP47 (human) (UniProt Q96K76)
T1 sequence: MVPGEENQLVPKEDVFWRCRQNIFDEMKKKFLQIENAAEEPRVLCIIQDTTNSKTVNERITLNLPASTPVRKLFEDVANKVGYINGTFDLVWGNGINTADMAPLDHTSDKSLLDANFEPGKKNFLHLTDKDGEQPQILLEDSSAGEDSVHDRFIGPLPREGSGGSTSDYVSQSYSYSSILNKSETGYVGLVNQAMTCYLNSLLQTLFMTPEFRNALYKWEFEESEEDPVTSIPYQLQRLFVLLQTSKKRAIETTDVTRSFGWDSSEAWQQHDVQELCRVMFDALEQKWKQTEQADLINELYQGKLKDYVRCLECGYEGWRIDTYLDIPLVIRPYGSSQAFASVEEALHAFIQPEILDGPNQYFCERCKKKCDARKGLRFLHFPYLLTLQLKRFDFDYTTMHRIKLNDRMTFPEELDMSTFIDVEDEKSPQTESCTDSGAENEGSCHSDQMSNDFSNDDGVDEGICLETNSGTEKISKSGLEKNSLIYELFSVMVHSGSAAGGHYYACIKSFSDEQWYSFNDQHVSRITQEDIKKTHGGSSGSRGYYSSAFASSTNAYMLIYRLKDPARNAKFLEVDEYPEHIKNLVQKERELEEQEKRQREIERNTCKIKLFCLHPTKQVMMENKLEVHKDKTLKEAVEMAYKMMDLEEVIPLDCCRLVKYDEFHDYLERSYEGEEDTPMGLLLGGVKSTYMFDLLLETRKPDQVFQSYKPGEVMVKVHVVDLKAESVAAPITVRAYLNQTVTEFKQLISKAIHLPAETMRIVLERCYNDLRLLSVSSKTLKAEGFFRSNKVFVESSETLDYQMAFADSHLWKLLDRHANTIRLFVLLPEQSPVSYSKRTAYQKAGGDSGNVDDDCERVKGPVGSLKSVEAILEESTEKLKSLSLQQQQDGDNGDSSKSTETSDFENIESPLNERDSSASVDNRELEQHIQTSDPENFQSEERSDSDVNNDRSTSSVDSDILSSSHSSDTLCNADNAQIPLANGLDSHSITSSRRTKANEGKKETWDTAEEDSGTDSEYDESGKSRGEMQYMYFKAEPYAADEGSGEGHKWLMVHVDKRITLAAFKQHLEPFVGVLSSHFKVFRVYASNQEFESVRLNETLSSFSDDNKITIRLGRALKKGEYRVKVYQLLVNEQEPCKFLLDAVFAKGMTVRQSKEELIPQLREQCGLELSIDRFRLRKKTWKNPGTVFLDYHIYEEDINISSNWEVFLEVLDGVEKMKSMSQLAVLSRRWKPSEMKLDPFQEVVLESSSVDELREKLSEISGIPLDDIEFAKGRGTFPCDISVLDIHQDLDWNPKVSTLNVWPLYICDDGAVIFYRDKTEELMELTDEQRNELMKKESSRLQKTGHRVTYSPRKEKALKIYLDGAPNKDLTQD

Amino acid sequences for entries named in this document (tags omitted).
UniProt Q12888: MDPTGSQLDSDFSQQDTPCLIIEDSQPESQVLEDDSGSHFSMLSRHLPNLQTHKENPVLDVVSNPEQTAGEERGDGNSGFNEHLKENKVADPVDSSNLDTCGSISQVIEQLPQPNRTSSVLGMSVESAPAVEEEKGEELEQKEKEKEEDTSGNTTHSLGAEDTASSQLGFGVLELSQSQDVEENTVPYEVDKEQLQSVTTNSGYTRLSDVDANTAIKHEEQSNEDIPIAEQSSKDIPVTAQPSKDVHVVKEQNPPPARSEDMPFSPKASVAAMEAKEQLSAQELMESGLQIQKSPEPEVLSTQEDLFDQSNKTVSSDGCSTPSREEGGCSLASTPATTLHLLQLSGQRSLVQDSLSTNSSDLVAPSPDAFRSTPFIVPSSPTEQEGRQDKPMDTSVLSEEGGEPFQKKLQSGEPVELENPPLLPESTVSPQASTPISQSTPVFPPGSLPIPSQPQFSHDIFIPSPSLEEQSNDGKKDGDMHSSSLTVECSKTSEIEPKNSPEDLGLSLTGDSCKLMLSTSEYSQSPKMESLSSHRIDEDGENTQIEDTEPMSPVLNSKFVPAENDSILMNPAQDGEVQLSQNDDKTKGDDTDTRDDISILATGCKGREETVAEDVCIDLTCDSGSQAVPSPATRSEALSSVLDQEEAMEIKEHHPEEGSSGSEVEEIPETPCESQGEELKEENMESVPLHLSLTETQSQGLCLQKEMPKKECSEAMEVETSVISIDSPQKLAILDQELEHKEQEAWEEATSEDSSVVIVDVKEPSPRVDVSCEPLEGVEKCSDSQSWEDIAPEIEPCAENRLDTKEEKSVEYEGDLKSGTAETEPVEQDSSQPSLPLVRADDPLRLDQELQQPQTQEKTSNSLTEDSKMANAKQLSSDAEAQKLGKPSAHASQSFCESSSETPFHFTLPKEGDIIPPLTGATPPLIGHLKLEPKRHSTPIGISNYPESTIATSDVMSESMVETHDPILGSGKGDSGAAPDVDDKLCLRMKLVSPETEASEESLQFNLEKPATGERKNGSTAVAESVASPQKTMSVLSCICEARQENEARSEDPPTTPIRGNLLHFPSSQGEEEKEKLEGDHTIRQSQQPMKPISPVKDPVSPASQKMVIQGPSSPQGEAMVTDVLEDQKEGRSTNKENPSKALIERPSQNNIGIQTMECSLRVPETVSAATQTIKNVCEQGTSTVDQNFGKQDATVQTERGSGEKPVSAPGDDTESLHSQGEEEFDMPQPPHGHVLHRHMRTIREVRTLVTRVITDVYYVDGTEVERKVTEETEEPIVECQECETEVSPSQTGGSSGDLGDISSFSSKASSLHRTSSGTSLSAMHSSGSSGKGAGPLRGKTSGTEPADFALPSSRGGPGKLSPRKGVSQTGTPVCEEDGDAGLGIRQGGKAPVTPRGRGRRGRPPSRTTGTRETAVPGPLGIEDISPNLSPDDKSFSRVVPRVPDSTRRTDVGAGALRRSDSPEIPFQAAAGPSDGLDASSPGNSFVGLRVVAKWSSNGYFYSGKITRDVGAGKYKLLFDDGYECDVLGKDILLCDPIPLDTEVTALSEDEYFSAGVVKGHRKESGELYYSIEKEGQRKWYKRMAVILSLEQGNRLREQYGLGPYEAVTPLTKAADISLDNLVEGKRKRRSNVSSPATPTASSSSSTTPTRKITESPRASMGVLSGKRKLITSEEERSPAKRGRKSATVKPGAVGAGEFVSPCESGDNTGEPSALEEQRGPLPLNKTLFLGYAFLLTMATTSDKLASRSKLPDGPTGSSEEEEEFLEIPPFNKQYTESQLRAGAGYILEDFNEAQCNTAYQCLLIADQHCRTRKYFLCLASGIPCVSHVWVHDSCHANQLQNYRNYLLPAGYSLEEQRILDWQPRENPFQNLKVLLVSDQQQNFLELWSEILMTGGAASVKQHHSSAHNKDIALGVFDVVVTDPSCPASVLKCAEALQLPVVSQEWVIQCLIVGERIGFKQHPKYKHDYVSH
UniProt P46063: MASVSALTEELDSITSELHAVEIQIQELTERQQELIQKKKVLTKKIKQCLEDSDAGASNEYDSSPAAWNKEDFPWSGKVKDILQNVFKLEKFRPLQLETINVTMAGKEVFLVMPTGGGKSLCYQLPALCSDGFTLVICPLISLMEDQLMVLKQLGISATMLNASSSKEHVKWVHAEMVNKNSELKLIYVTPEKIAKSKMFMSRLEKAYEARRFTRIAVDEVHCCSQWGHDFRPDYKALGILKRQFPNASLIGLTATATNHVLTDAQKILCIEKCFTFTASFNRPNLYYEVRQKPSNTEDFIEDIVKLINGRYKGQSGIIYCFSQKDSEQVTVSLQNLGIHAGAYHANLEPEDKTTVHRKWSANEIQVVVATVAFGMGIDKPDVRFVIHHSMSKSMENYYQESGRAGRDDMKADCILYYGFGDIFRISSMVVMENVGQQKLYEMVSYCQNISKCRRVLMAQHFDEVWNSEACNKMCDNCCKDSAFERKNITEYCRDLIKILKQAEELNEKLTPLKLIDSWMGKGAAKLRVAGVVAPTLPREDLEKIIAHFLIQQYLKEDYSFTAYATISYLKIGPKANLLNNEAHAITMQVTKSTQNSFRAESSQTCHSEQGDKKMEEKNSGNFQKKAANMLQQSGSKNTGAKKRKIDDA
UniProt P39748: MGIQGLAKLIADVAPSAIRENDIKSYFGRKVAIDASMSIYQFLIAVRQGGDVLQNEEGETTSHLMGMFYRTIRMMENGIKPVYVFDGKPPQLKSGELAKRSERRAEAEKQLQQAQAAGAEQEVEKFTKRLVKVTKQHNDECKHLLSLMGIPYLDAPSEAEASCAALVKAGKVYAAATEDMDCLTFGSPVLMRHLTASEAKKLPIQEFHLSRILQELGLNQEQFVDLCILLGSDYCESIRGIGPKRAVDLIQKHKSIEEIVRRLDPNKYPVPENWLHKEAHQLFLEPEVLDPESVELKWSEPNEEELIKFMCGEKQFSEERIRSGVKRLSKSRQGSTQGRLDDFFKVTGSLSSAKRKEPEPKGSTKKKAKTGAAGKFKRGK
UniProt O94822: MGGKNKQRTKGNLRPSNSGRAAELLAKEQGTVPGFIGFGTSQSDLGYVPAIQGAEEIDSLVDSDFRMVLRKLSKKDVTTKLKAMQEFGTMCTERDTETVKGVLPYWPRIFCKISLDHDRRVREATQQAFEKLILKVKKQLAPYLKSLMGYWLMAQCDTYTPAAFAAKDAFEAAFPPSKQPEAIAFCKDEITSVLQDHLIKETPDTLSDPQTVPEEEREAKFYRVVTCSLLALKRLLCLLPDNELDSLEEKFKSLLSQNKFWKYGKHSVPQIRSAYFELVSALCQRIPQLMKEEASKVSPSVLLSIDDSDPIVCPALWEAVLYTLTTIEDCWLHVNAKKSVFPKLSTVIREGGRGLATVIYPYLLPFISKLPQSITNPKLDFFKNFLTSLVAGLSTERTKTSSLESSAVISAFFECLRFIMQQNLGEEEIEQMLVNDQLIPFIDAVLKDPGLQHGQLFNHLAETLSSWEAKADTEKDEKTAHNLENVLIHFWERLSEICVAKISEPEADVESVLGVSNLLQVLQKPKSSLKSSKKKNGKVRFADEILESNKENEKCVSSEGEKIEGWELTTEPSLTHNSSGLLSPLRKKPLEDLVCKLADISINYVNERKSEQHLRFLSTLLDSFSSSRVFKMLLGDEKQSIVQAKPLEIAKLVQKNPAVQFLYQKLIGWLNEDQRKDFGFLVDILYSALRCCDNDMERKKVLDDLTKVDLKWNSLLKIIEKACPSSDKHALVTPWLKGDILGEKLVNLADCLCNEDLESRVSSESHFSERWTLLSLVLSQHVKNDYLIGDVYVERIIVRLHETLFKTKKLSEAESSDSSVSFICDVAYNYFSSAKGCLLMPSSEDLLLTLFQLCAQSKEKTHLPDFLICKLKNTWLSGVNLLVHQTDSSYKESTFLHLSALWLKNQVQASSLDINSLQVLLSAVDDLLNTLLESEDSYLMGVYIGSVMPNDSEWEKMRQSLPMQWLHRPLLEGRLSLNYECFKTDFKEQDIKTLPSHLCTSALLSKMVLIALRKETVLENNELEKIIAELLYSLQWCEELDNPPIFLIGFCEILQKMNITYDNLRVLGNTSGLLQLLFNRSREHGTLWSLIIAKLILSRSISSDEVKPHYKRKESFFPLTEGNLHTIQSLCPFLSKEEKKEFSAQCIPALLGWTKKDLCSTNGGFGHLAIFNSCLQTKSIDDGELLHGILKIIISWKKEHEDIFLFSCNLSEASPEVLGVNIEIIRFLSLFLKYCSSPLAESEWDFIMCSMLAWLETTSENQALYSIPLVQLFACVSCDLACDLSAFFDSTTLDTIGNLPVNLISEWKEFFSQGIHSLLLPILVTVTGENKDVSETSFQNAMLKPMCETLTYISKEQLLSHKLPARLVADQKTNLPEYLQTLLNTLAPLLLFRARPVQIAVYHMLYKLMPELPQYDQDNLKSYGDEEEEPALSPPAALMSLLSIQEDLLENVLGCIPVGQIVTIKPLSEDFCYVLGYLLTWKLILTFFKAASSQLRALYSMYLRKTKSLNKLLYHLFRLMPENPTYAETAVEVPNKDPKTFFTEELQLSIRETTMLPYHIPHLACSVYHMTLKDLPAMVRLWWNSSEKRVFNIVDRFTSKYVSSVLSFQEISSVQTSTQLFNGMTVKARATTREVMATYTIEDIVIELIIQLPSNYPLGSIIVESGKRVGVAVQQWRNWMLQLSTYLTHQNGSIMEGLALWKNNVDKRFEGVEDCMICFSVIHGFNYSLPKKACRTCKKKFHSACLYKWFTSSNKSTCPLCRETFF

MYC-53BP1 = MYC-53BP1 (UniProt Q12888)
Myc-RECQL1 [1] = target: Myc-RECQL1 (UniProt P46063)
Myc-RECQL1 [2] = target: Myc-RECQL1 (UniProt P46063); remark: listed apart in the source

Row | Substance | binding (Myc-USP47 (human)) | binding (MYC-53BP1) | binding (Myc-RECQL1 [1]) | binding (Myc-RECQL1 [2])
1 | FEN1, endogenous (from UniProt P39748 1-380) (enzyme) | binds | – | – | –
2 | Listerin (LTN1) (from UniProt O94822 1-1766) (enzyme) | – | binds | – | –
3 | TP53 Binding protein 1 (53BP1), endogenous (from UniProt Q12888 1-1972) | binds | – | binds | binds
4 | RECQL1, endogenous (from UniProt P46063 1-649) (enzyme) | binds | – | – | –

Source: paper doi:10.1101/2021.01.27.428282
